According to paper PMC10620822:
No constants are given. Whether binding was seen depends on the method and setting. Binding seen in cells or lysates may run through a third protein. These calls come from enrichment with a bait or labelling near it, and not all partners need be listed.

Molecular target: Flag-CENPA (human) (UniProt P49450)
Test: affinity purification with mass spectrometry; Flag-CENPA expressed in HEK293T cells, co-IP to enrich interacting proteins, silver staining, mass spectrometry

YY1 (endogenous, HEK293T) (from UniProt P25490 1-414)
binding: binds
